Results taken from the supplement of paper PMC9877034.
Counter-ions that a name gives are not always drawn. Whole data set: some 1,000 compounds, median “cFRET/donor change relative to DMSO, normalised to beta-lapachone positive control (supercomplex I-IV assembly)” near 0.18, cut for the lowest 2% near -1. The list shows a part of the results.

What follows are compounds tested on C2C12 (NDUFB8-AcGFP / COX8A-DsRed-Monomer FRET reporter) (assay: cFRET/donor change relative to DMSO, normalised to beta-lapachone positive control (supercomplex I-IV assembly) (fraction of beta-lapachone effect); higher = more respiratory supercomplex assembly). Conditions: 40 µM; 24 h.
Procedure: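 Cells were treated with 40 uM compound for 24 h and imaged on an IN Cell Analyzer 6000. Corrected FRET was divided by donor signal (cFRET/donor) and measured in two replicate experiments. The score is (mean cFRET/donor of compound - mean DMSO) / (mean beta-lapachone 40 uM - mean DMSO). Compounds flagged for prominent cell death, abnormal morphology or decreased cell number were excluded.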
In the case of `N[C@@H](CCC(=O)N[C@@H](CSN=O)C(=O)NCC(=O)O)C(=O)O` [S-Nitrosoglutathione], the cFRET/donor change is reported as -0.171. `CC(CCc1ccc(O)cc1)NCCc1ccc(O)c(O)c1` (stereo unspecified) [Dobutamine hydrochloride] was tested, and the cFRET/donor change was 1.02. `CCOc1nc2cccc(C(=O)OC(C)OC(=O)OC3CCCCC3)c2n1Cc1ccc(-c2ccccc2-c2nn[nH]n2)cc1` (stereo unspecified) [Candesartan cilexetil] was tested, and the cFRET/donor change was 0.942. `COc1ccccc1OCCNCC(O)COc1cccc2[nH]c3ccccc3c12` (stereo unspecified) [Carvedilol] gave a cFRET/donor change of 0.5. `CCCOC(=O)c1c(-c2ccccc2)nc(CC)c(C(=O)SCC)c1CCC` showed a cFRET/donor change of -0.153. `CCN1CCCC1CNC(=O)c1cc(S(=O)(=O)CC)c(N)cc1OC` (stereo unspecified) [Amisulpride] gave a cFRET/donor change of 0.0234. Work on `CC(C)(NS(=O)(=O)c1ccc(Oc2ccc(F)cc2)cc1)C(=O)NO` yielded a cFRET/donor change of 0.196. `CC(CN1c2ccccc2Sc2ccccc21)N(C)C` (stereo unspecified) [Promethazine hydrochloride] showed a cFRET/donor change of 0.123. Compound `N[C@H](C(=O)O)[C@H](Cc1ccccc1)C(=O)O` [L-Beta-threo-benzyl-aspartate] has a cFRET/donor change of -0.122. `CCOC(=O)C1=C(C)NC(C)=C(C(=O)OC)C1c1cccc([N+](=O)[O-])c1` (stereo unspecified) [Nitrendipine] gave a cFRET/donor change of -0.204. In the case of `CN(C)c1nc(N)c(C(=O)NC(=N)N)nc1Cl` [5-(N,N-Dimethyl)amiloride hydrochloride], the cFRET/donor change is reported as 0.174. In the case of `C[C@H](O)C(=O)C1=Nc2c(nc(N)[nH]c2=O)NC1` [Sepiapterin], the cFRET/donor change is reported as -0.818. Compound `COc1ccccc1N1CCN(CCN2C(=O)CC3(CCCC3)CC2=O)CC1` [BMY 7378 dihydrochloride] has a cFRET/donor change of 0.18. `CN1Cc2sccc2C(c2ccc(O)c(O)c2)C1` (stereo unspecified) gave a cFRET/donor change of 0.596. `CC(C)(C)c1cc(/C=C(\C#N)C(N)=S)cc(C(C)(C)C)c1O` [Tyrphostin AG 879] gave a cFRET/donor change of -2.01. Compound `CN(CCCOc1ccc(Cc2ccccc2)cc1)CCC(=O)O` has a cFRET/donor change of 0.52. Compound `CN(C)CCCC1(c2ccc(F)cc2)OCc2cc(C#N)ccc21` (stereo unspecified) [Citalopram hydrobromide] has a cFRET/donor change of 0.337. `Nn1nnc2ccccc21` [1-Aminobenzotriazole] showed a cFRET/donor change of 0.308. `CCCC(CCC)C(=O)O` [Valproic acid sodium] was tested, and the cFRET/donor change was 0.384. In the case of `CC(C)(C)NCC(O)c1ccc(O)c(CO)c1` (stereo unspecified) [Albuterol hemisulfate], the cFRET/donor change is reported as 0.486. For `CCCCCCCC/C=C\CCCCCCCC(=O)O` [Oleic Acid], the cFRET/donor change was 0.074. `Cn1c(=O)c2c(ncn2C)n(C)c1=O` [Caffeine] gave a cFRET/donor change of 0.18. `[N-]=[N+]=Nc1ccc(C(=O)CSC[C@H](NC(=O)CC[C@H](N)C(=O)O)C(=O)NCC(=O)O)cc1` [S-(p-Azidophenacyl)glutathione] showed a cFRET/donor change of -0.174. Compound `CC(=O)O[C@H]1Cc2ccccc2N(C(N)=O)c2ccccc21` has a cFRET/donor change of 0.157. Compound `CC(C)(C)NC(=O)[C@@H]1CN(Cc2cccnc2)CCN1C[C@@H](O)C[C@@H](Cc1ccccc1)C(=O)N[C@H]1c2ccccc2C[C@H]1O` [Indinavir sulfate salt hydrate] has a cFRET/donor change of 0.0944. Compound `O=C(O[C@@H]1C[C@@H]2C[C@H]3C[C@H](C1)N2CC3=O)c1c[nH]c2ccccc12` [Dolasetron mesylate hydrate] has a cFRET/donor change of 0.115. `CCCCCCCCc1ccc(-c2ccc(C(=O)O)cc2)cc1` gave a cFRET/donor change of 0.0523. Compound `C[N+](C)(C)CCCCCC[N+](C)(C)C` [Hexamethonium bromide] has a cFRET/donor change of -0.056. For `C[N+](C)(C)CCCCCC[N+](C)(C)C` [Hexamethonium dichloride], the cFRET/donor change was -0.0282. In the case of `CCCCCC[C@@H]([C@@H](C)O)n1cnc2c(N)ncnc21` [erythro-9-(2-Hydroxy-3-nonyl)adenine hydrochloride], the cFRET/donor change is reported as 0.117. In the case of `Cc1cn(C2C=CC(CO)O2)c(=O)[nH]c1=O` (stereo unspecified) [2',3'-didehydro-3'-deoxythymidine], the cFRET/donor change is reported as 0.515. In the case of `O=C(O)c1cccnc1Nc1cccc(C(F)(F)F)c1` [Niflumic acid], the cFRET/donor change is reported as 0.158. With `Nc1nc2c(c(=O)[nH]1)C[C@@H](CCc1ccc(C(=O)N[C@@H](CCC(=O)O)C(=O)O)cc1)CN2` [Lometrexol hydrate] the cFRET/donor change was -0.284. For `Cc1ccc(O)c(N=Nc2ccccc2)n1`, the cFRET/donor change was 0.375. `CC(C)(C)C(=O)Oc1ccc(S(=O)(=O)Nc2ccccc2C(=O)NCC(=O)O)cc1` [Sivelestat sodium salt hydrate] was tested, and the cFRET/donor change was -0.0182. In the case of `CSc1ccc2c(c1)C(N1CCN(C)CC1)Cc1ccccc1S2` (stereo unspecified) [Methiothepin mesylate], the cFRET/donor change is reported as 0.408. In the case of `COc1ccc(/C=C/c2nc(NCCCN(C)C)c3ccccc3n2)cc1`, the cFRET/donor change is reported as 0.418. `Cc1cc(C(C)(C)C)c(O)c(C)c1CC1=NCCN1` [Oxymetazoline hydrochloride] gave a cFRET/donor change of 0.136. Work on `CN(C)CCCN1c2ccccc2Sc2ccccc21` [Promazine hydrochloride] yielded a cFRET/donor change of -0.115. Work on `CC(N)=NCCCC[C@H](N)C(=O)O` [L-N6-(1-Iminoethyl)lysine hydrochloride] yielded a cFRET/donor change of -0.0938. Compound `CC(C)(C(=O)O)c1ccc(C(O)CCCN2CCC(C(O)(c3ccccc3)c3ccccc3)CC2)cc1` (stereo unspecified) [Fexofenadine hydrochloride] has a cFRET/donor change of -0.0711. Work on `CCN(CC)CCCCNc1ncc2cc(-c3c(Cl)cccc3Cl)c(NC(=O)NC(C)(C)C)nc2n1` yielded a cFRET/donor change of 0.403. `O=C(Nc1ccccc1)c1cc([N+](=O)[O-])ccc1Cl` showed a cFRET/donor change of -0.257. Compound `C[N+]1(CCCCC[N+]2(C)CCCC2)CCCC1` [Pentolinium di[L(+)-tartrate]] has a cFRET/donor change of -0.363. Compound `C[C@]12CCC(=O)C=C1CC[C@@H]1[C@@H]2[C@@H](O)C[C@@]2(C)[C@H]1CC[C@]2(O)C(=O)CO` [Hydrocortisone] has a cFRET/donor change of 0.0884. In the case of `CNCCCC1c2ccccc2C=Cc2ccccc21` [Protriptyline hydrochloride], the cFRET/donor change is reported as 0.409. `Oc1ncnc2[nH]ncc12` [Allopurinol] showed a cFRET/donor change of -0.0233. Compound `S=C(S)OC1CC2CC1C1CCCC21` [D-609 potassium] has a cFRET/donor change of 0.225. `Cn1cnc2c(NCc3ccccc3)nc(NCCO)nc21` [Olomoucine] gave a cFRET/donor change of -0.51. In the case of `COc1cccc2c1[C@@H]1CN(CCCCn3c(=O)[nH]c4c(sc5ncc(-c6ccccc6)nc54)c3=O)C[C@@H]1CO2` [Fiduxosin hydrochloride], the cFRET/donor change is reported as -1.25. Compound `N=C(N)c1ccc(OCCCCCOc2ccc(C(=N)N)cc2)cc1` [Pentamidine isethionate] has a cFRET/donor change of 0.191.
